Assay results as given in paper PMC4049605.
These are yes or no findings as the source states them, for the method shown. In cells and extracts the contact can be indirect. Some entries that bind do so weakly or less than the wild type. Tags and fused reporters may be left off the sequences shown.

Columns and labels:
Assay in all cases: pull-down; 50 µg GST fusion on glutathione-Sepharose beads; lysate of HeLa-M cells transfected with Myc-Munc18-2; STEP buffer (10 mM Tris pH 8.0, 150 mM NaCl, 1 mM EDTA, 1 mM DTT, 1 mM PMSF) with 0.5% Triton X-100; 4°C, 2 h; immunoblot for SNAP23 and Myc tag; only the target purified
[1] = biological target: T1, GST-syntaxin 11 Q268X (human) (UniProt O75558)
T1 sequence: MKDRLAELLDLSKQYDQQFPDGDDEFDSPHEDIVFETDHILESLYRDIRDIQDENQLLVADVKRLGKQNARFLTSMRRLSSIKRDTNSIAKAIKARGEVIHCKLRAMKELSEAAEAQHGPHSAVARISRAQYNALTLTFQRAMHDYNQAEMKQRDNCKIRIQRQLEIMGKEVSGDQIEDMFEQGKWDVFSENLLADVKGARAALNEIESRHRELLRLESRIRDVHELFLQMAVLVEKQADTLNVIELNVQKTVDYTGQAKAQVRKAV

[2] = biological target: T2, GST-syntaxin 11 (human) (UniProt O75558)
T2 sequence: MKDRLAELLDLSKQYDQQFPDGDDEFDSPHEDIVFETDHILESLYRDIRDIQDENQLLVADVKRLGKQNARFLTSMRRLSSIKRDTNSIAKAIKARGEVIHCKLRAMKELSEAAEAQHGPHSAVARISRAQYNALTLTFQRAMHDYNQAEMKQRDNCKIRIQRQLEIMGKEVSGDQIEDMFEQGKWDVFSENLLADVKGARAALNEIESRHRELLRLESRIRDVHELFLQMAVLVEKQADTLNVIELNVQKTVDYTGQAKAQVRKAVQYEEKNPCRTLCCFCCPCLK

[3] = biological target: T3, GST-syntaxin 11 E25X (human) (UniProt O75558)
T3 sequence: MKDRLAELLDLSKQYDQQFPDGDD

Measured: binding

B1: Myc-Munc18-2 (protein, UniProt Q15833 1-593)
chain: MAPSGLKAVVGEKILSGVIRSVKKDGEWKVLIMDHPSMRILSSCCKMSDILAEGITIVEDINKRREPIPSLEAIYLLSPTEKSVQALIKDFQGTPTFTYKAAHIFFTDTCPEPLFSELGRSRLAKVVKTLKEIHLAFLPYEAQVFSLDAPHSTYNLYCPFRAEERTRQLEVLAQQIATLCATLQEYPAIRYRKGPEDTAQLAHAVLAKLNAFKADTPSLGEGPEKTRSQLLIMDRAADPVSPLLHELTFQAMAYDLLDIEQDTYRYETTGLSEAREKAVLLDEDDDLWVELRHMHIADVSKKVTELLRTFCESKRLTTDKANIKDLSQILKKMPQYQKELNKYSTHLHLADDCMKHFKGSVEKLCSVEQDLAMGSDAEGEKIKDSMKLIVPVLLDAAVPAYDKIRVLLLYILLRNGVSEENLAKLIQHANVQAHSSLIRNLEQLGGTVTNPGGSGTSSRLEPRERMEPTYQLSRWTPVIKDVMEDAVEDRLDRNLWPFVSDPAPTASSQAAVSARFGHWHKNKAGIEARAGPRLIVYVMGGVAMSEMRAAYEVTRATEGKWEVLIGSSHILTPTRFLDDLKALDKKLEDIALP
binds: all assays above
